Laboratory results as given in the supplement of paper PMC11006884.
Only a part is listed here, and it is no random draw.

Sequences of proteins named here, by UniProt entry; tags and fusion partners are left off. A change or cut given only in a name is not applied to a line headed by its entry.
UniProt Q15075: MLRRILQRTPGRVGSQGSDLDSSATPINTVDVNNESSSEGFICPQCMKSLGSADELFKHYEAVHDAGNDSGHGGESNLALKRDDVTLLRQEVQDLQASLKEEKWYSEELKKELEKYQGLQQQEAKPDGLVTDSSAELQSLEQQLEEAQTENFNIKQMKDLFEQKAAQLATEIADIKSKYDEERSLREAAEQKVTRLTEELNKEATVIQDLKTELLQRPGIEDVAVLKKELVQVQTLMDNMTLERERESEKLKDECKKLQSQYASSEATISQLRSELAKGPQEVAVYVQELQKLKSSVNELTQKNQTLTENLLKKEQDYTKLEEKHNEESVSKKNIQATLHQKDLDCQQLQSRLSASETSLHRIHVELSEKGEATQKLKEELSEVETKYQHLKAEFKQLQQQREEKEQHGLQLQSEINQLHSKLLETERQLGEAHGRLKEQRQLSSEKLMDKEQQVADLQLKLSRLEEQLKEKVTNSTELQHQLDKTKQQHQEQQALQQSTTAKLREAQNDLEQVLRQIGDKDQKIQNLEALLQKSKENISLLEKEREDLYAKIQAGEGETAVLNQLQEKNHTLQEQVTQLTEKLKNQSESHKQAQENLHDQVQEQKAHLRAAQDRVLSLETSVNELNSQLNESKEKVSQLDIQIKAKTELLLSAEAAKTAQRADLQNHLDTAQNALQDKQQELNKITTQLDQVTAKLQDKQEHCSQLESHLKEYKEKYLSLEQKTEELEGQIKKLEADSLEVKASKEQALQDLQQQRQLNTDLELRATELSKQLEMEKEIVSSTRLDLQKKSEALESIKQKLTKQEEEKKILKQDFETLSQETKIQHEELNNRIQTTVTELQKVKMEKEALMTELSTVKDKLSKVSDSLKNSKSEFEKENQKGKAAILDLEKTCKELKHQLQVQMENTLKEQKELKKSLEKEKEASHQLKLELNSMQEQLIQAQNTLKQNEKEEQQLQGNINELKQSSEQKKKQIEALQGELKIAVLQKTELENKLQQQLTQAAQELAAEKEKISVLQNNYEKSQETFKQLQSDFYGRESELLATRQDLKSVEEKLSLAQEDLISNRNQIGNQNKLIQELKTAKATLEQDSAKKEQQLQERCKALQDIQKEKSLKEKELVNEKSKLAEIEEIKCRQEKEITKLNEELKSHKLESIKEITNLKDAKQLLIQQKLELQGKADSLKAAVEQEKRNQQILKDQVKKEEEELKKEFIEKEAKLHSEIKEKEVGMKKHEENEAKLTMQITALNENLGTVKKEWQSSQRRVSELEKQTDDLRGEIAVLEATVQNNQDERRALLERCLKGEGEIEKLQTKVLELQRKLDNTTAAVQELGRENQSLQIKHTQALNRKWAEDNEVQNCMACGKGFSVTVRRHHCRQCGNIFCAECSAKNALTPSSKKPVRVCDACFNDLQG
UniProt Q16576, whole entry, looked up: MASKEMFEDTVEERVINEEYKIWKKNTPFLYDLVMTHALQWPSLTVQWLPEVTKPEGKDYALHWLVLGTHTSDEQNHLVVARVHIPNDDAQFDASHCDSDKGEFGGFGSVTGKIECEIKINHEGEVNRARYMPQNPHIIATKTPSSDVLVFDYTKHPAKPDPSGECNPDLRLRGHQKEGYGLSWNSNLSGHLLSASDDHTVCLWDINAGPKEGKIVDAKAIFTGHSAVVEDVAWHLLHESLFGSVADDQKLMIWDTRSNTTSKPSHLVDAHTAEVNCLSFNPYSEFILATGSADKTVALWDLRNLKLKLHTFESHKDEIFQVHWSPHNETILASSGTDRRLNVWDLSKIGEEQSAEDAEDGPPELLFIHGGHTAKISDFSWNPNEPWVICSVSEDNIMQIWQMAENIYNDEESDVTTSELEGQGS
UniProt Q15527: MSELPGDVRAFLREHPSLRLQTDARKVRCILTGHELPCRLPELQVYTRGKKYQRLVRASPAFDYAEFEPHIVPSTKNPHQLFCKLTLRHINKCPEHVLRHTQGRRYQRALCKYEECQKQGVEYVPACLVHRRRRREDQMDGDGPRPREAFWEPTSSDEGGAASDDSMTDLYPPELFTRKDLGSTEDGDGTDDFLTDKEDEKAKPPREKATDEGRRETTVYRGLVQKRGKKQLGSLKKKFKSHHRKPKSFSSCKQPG
UniProt Q15459: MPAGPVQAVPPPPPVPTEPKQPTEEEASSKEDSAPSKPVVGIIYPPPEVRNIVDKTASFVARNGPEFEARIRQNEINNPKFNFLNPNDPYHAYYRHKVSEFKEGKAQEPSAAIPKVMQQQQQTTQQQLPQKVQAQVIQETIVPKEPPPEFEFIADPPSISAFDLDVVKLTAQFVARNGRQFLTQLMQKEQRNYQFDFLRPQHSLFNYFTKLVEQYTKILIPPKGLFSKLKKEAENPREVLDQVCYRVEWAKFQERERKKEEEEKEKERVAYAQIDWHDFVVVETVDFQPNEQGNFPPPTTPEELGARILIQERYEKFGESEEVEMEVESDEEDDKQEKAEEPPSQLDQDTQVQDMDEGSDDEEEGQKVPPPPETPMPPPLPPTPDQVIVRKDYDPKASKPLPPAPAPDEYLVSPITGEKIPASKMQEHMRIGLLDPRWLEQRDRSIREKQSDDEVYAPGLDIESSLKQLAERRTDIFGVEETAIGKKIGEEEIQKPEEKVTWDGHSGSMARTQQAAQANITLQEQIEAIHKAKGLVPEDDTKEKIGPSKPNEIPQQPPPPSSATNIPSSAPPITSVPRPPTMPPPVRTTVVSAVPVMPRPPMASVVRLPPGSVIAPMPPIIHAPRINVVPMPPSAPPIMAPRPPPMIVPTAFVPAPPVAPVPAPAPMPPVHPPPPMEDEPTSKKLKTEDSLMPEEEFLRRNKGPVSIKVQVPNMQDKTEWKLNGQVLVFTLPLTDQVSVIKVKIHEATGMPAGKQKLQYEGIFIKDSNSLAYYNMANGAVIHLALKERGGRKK
UniProt Q1KMD3: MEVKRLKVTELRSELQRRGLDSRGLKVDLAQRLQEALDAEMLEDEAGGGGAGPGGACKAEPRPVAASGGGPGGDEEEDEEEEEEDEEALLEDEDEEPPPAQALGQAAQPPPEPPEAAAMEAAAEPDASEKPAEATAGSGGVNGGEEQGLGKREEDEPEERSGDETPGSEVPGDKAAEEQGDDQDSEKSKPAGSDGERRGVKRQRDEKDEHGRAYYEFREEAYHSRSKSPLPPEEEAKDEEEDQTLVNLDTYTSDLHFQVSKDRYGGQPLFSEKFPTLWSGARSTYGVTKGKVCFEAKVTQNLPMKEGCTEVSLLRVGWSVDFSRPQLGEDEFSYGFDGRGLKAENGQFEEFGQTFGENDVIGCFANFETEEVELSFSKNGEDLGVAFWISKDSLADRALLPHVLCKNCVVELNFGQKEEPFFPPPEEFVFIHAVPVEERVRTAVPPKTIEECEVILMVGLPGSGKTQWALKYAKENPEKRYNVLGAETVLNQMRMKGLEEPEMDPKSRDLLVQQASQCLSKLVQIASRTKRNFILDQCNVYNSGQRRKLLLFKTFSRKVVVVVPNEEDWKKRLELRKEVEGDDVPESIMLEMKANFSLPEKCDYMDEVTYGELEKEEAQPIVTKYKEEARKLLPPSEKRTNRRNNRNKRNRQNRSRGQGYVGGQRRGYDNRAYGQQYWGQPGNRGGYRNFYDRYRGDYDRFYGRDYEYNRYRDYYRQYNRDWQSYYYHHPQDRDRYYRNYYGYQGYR
UniProt Q2TAA2: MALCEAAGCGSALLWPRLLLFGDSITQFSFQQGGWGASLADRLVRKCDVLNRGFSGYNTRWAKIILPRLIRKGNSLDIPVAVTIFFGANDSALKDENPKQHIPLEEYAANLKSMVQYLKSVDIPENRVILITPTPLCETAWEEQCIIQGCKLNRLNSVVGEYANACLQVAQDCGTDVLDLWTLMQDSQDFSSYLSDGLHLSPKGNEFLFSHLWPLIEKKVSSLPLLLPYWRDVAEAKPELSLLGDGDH
UniProt Q49A26: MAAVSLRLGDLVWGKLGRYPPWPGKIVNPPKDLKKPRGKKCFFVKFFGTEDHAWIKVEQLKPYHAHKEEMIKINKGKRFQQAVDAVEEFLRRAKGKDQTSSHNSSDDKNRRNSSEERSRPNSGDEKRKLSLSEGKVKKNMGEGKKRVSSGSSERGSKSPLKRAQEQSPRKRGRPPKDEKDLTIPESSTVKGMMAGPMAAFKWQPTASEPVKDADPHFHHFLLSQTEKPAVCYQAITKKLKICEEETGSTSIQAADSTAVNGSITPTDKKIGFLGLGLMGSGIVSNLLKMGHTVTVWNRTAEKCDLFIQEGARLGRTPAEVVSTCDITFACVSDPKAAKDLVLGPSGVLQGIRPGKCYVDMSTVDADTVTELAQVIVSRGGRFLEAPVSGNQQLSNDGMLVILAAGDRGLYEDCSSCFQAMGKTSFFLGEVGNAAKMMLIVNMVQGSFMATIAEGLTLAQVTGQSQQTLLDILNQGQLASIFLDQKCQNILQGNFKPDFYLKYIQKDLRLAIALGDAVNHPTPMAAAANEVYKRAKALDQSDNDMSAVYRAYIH
UniProt Q53EL6: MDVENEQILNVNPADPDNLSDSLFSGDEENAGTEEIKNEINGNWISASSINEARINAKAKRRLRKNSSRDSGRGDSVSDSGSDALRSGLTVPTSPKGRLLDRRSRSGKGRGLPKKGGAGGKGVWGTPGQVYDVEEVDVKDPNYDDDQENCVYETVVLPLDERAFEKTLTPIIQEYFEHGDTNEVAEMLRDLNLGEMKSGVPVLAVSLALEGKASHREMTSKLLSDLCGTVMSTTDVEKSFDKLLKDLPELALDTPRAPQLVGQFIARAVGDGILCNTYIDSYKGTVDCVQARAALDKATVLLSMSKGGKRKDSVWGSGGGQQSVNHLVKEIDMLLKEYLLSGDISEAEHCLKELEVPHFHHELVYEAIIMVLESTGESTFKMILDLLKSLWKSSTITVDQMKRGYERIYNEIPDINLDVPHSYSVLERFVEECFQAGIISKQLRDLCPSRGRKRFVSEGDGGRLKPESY
UniProt Q2M3G4: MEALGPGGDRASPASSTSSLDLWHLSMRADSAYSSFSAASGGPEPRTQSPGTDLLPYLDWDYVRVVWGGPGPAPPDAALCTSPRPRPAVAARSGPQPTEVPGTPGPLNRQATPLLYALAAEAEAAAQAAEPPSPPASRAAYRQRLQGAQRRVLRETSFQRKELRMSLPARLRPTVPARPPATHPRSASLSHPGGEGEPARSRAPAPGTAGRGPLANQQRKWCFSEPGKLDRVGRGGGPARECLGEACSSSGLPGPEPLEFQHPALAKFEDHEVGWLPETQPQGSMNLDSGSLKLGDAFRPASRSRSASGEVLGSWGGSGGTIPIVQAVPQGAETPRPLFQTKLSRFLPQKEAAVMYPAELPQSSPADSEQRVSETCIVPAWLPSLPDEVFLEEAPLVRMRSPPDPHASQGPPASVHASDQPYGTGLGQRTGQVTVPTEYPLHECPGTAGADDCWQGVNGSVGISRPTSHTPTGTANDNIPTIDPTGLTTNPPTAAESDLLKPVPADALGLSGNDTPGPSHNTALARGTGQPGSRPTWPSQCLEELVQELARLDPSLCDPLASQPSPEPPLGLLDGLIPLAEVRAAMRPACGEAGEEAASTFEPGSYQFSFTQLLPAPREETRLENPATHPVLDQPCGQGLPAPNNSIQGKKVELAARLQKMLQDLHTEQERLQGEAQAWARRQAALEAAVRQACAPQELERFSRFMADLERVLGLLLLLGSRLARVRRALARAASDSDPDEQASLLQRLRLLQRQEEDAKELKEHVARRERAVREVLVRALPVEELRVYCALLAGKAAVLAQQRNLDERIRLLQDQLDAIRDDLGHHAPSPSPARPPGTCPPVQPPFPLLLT
UniProt Q15366, whole entry, looked up: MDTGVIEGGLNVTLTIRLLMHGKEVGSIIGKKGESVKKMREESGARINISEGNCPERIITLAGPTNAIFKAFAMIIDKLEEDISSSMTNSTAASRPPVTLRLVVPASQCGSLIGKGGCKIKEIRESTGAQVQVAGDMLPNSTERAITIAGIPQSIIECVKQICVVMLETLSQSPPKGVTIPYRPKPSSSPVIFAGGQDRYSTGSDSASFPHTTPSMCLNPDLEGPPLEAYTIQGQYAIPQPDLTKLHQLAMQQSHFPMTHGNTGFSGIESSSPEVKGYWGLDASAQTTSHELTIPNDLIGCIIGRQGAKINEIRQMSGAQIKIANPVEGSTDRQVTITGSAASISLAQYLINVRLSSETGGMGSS
UniProt Q16698: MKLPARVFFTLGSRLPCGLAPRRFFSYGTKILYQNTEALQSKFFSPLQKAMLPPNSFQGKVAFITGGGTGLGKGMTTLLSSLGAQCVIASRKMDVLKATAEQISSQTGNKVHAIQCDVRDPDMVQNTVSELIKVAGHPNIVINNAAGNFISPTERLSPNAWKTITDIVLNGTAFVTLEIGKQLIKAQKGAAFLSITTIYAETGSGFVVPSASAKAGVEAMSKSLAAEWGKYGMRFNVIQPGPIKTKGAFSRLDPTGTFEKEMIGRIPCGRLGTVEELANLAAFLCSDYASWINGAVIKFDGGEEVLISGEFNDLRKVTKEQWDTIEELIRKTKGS

Each target was assayed with COC(=O)C#Cc1ccccc1 [methyl 3-phenylpropiolate] (assay: log2 ratio of iodoacetamide-alkyne labeling of the cysteine site, DMSO over compound (competition); higher = stronger covalent engagement of the cysteine by the compound, active = 1 or more). Conditions: 500 µM; treatment time 1 h; system: HEK293T cell lysate.
In short: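 After 1 h at ambient temperature with vehicle or electrophile (500 µM), HEK293T lysate (2 mg/mL) was labelled for 1 h with iodoacetamide alkyne and clicked to sCIP-TMT reagents. Pooled samples were trypsin-digested overnight at 37 °C, streptavidin-enriched, acid-eluted and analysed by Orbitrap Eclipse LC-MS/MS with FAIMS, then quantified in FragPipe over three replicates with duplicate channels. A cysteine's log2 competition ratio is its mean control-channel over mean compound-channel reporter intensity. Cysteines quantified in only one replicate were not included.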

| Target | log2 ratio of iodoacetamide-alkyne labeling |
| --- | --- |
| UniProt Q3LXA3_C24 | inactive: 0.218 |
| EEA1 C1402 (UniProt Q15075) | inactive: 0.0817 |
| EFTUD2 C663 (UniProt Q15029) | inactive: -0.155 |
| UniProt Q15750_C62 | inactive: 0.202 |
| RBBP7 C277 (UniProt Q16576) | inactive: 0.408 |
| SURF2 C111 (UniProt Q15527) | inactive: 0.0646 |
| SF3A1 C244 (UniProt Q15459) | inactive: 0.0803 |
| HNRNPUL2 C602 (UniProt Q1KMD3) | inactive: 0.302 |
| IAH1 C9 (UniProt Q2TAA2) | active: 2.43 |
| KIF14 C47 (UniProt Q15058) | inactive: 0.247 |
| GLYR1 C356 (UniProt Q49A26) | inactive: -0.00279 |
| PDCD4 C275 (UniProt Q53EL6) | inactive: 0.697 |
| SHROOM1 C376 (UniProt Q2M3G4) | inactive: 0.115 |
| EEA1 C1299 (UniProt Q15075) | inactive: 0.315 |
| PCBP2 C217 (UniProt Q15366) | inactive: 0.323 |
| HNRNPUL2 C452 (UniProt Q1KMD3) | inactive: -0.0936 |
| HNRNPUL2 C57 (UniProt Q1KMD3) | inactive: 0.32 |
| MAP7D1 C373 (UniProt Q3KQU3) | inactive: 0.815 |
| HSD17B12 C215 (UniProt Q53GQ0) | inactive: 0.0895 |
| DECR1 C116 (UniProt Q16698) | inactive: 0.219 |
| PDK3 C41 (UniProt Q15120) | inactive: 0.957 |

Some values from the results shown.
Entry for EEA1 C1402 (UniProt Q15075) under log2 ratio of iodoacetamide-alkyne labeling: inactive: 0.0817
Entry for SHROOM1 C376 (UniProt Q2M3G4) under log2 ratio of iodoacetamide-alkyne labeling: inactive: 0.115
